Data: US20160095823A1, “METHODS OF USING PROPOFOL DERIVATIVES FOR ANALGESIA” (priority 2005, published 2016)
Some results were stated once for a whole list of compounds, not compound by compound.

What was measured:
Type in all cases: cell-based
[1] = biological target: T1, α1 homomeric glycine receptors (Rattus norvegicus, UniProt P07727); assay: Direct activation of Cl- inward currents (agonist applied alone), whole-cell patch clamp, HEK 293; conditions: without glycine
T1 construct: expressed in transfected cells; host or cells: HEK 293, transient electroporation, cDNA in pCIS2, GFP cDNA co-transfected as marker
T1 sequence (P07727 29-457): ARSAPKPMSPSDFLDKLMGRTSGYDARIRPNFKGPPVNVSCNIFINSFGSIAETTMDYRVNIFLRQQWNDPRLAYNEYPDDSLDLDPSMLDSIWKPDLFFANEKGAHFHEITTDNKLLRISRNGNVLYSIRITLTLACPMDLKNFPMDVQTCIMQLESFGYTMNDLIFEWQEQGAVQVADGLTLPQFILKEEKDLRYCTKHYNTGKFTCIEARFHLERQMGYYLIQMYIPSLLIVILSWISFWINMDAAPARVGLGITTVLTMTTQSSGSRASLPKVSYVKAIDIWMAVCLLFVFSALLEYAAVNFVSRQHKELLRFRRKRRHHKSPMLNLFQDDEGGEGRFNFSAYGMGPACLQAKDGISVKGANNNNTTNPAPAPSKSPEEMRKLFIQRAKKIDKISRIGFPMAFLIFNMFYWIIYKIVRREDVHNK
Description: (§1) Reduced sensitivity to 1000 μM picrotoxin in α1β heteromeric receptors was used as an assay of the efficacy of β subunit expression. Cells were cultured in Dulbecco's modified Eagle's medium (DMEM, Biochrom, Berlin, Germany), supplemented with 10% fetal calf serum (FCS, Biochrom, Berlin, Germany), 100 U ml^−1 penicillin and 100 μg ml^−1 streptomycin at 37° C. in a 5% CO2/air incubator. For transfection, cells were suspended in a buffer containing 50 mM K2HPO4 and 20 mM K-acetate, pH 7.35. […] To visualize transfected cells, they were co-transfected with cDNA of green fluorescent protein (GFP 10 μg ml^−1). For transfection, we used an electroporation device by EquiBio (Kent, UK). Transfected cells were replated on glass-coverslips and incubated 15-24 h before recording.
(§2) Standard whole-cell experiments (Hamill et al., (1981) Pflügers Arch., 391, 85-100.) were performed at −30 mV membrane potential. A tight electrical seal of several GΩ formed between the cell membrane and a patch-clamp electrode allows inward currents due to agonist-induced channel activation to resolve in the pA range. Electrical resistance of the pipettes was around 5 MΩ, corresponding to a total access resistance in the whole-cell configuration of about 10 MΩ. An ultra-fast liquid filament switch technique (Franke et al., (1987) Neurosci. Lett., 77, 199-204) was used for the application of the agonist in pulses of 2 s duration. The agonist and/or the drug under investigation were applied to the cells via a smooth liquid filament achieved with a single outflow (glass tubing 0.15 mm inner diameter) connected to a piezo crystal. The cells were placed at the interface between this filament and the continuously flowing background solution. When a voltage pulse was applied to the piezo, the tube was moved up and down onto or away from the cell under investigation. […] The contents of these reservoirs were mixed at a junction immediately before entering the superfusion chamber.
(§3) A new cell was used for each drug and each protocol, at least three different experiments were performed for each setting. The amount of the diluent ethanol corresponding to the highest drug concentration used was 34 000 μM.
(§4) For data acquisition and further analysis the inventors used the Axopatch 200B amplifier in combination with pClamp6 software (Axon Instruments, Union City, Calif., USA). Currents were filtered at 2 kHz. Fitting procedures were performed using a non-linear least-squares Marquardt-Levenberg algorithm. Details are provided in the appropriate figure legends or in the results section.
(§5) Activated or co-activated currents were normalized to their own maximum response. […] In these cases, the maximum response was the response at the highest concentration of the test compound for which a reliable response could be recorded.

[2] = biological target: T2, α1β heteromeric glycine receptors (Rattus norvegicus, UniProt P07727); assay: as above; conditions: without glycine
T2 construct: expressed in transfected cells; host or cells: HEK 293, transient electroporation, α:β cDNA 1:10, pCIS2 vector
Description: as §1, §2, §3, §4, §5

[3] = biological target: T2, α1β heteromeric glycine receptors; assay: Co-activation of the current response to 10 μM glycine, whole-cell patch clamp, transfected HEK 293 cells; conditions: p<0.0001
Description: as §1
The phenol derivatives under investigation were prepared as 1 M stock solution in ethanol, light-protected and stored in glass vessels at −20° C. Concentrations were calculated from the amount injected into the glass vials. Drug-containing vials were vigorously vortexed for 60 min.
Patch electrodes contained [mM] KCl 140, MgCl2 2, EGTA 11, HEPES 10, glucose 10; the bath solution contained [mM] […]
Activated or co-activated currents were normalized to their own maximum response. […] In these cases, the maximum response was the response at the highest concentration of the test compound for which a reliable response could be recorded. […]

## Cc1cccc(C)c1O [2,6 dimethylphenol]
[1]
  concentrations at which receptors are directly activated: > 1000 µM
[2]
  concentrations at which receptors are directly activated: > 1000 µM

## Cc1cc(O)ccc1Cl [3 methyl-4-chlorophenol]
[3]
  half-maximum potentiating concentration, fold lower than non-halogenated analogue: more than 20 fold

## Cc1cc(O)cc(C)c1Cl [3,5 dimethyl-4-chlorophenol]
[3]
  half-maximum potentiating concentration, fold lower than non-halogenated analogue: more than 20 fold

## Cc1cc(C)cc(O)c1 [3,5 dimethylphenol]
[1]
  concentrations at which receptors are directly activated: > 1000 µM
[2]
  concentrations at which receptors are directly activated: > 1000 µM
